Experiment: general procedure: Boc solid-phase peptide synthesis
Conditions: oxidative folding step, one disulfide bridge, sequence written open

Substance: Gly-Pen-Gly-Arg-Gly-Asp-Ser-Pro-Cys-Ala
- crude HPLC purity: 90%

Reference: patent publication US6020460 (dated 2000)
